# Measurements reported in PubChem BioAssay AID493014 (National Center for Advancing Translational Sciences (NCATS), 2011).
# The other results are listed elsewhere or left out. The main result of the screen is listed elsewhere. These columns were measured beside it and carry no call. Most of these compounds were active or inconclusive in the main read-out, so they are no random draw. Potencies come from curve fits of mixed quality, noted in brackets.
# Assay: qHTS Assay to Find Inhibitors of Chronic Active B-Cell Receptor Signaling
# Conditions: ABC-DLBCL IkBa-CBG/CBR reporter, luminescence ratio (green luciferase fused to IkBa over red control in TMD8 lymphoma cells), 4 h
# Outline: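 Doxycycline induced both beetle luciferases in TMD8 lymphoma cells; IKK-driven degradation limits the IkappaBalpha-fused green signal, while red luminescence normalises for cell number and nonspecific effects. Compounds tested up to 46 uM, 4 hrs.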
# [1] = measured here: CBR red luminescence, cell number
# [2] = measured here: IkBa-CBG green luminescence
Compound,AC50 [1],AC50 [2]
Cc1cccc(NC(=S)Nc2ccc(Cl)c(Cl)c2)c1,"10 µM [rising, partial curve, poor fit]",
COc1ccc(CN2C(=O)C(C)Oc3ccccc32)cc1 (configuration not stated),"35.5 µM [rising, single point]",
CCCCc1cc(=O)oc2cc(C)c(CN3CCCC3)c(O)c12,"5.8 µM [falling, partial curve, poor fit]",
CN(CC(=O)Nc1ccc(F)cc1)CC(=O)NC1CCCCC1,"7.31 µM [falling, partial curve, poor fit]",
Cc1ccc(C(=O)Nc2cccc(C(=O)N/N=C/c3ccccc3F)c2)cc1,"35.5 µM [falling, single point]",
Cc1cc(=O)[nH]c(SCC(=O)NCCc2ccccc2)n1,"6.51 µM [rising, partial curve, poor fit]",
CC(C)NC(=O)c1ccc(-c2cccc(C(F)(F)F)c2)o1,"15.8 µM [rising, partial curve, poor fit]",
CCc1cccc(C)c1NC(=O)CN(C)Cc1ccc(Br)cc1,"17.8 µM [falling, single point]",
Cc1nc2ccc([N+](=O)[O-])cc2c(=O)n1Cc1cccc(Br)c1,"20 µM [falling, single point]",
C/C(=N\Nc1cccc(C(=O)O)c1)c1ccc2c(c1)Nc1ccccc1S2,"1.26 µM [rising, full curve, poor fit]","1.12 µM [rising, full curve, poor fit]"
Cc1ccc(S(=O)(=O)N2CCCCC2)cc1NC(=O)c1cc(F)c(F)c(F)c1F,"18.4 µM [falling, partial curve, poor fit]",
O=C(Nc1nc2ccc(F)cc2s1)C1=COCCO1,"3.66 µM [falling, partial curve, poor fit]",
CN(C(=O)COC(=O)c1cc2ccccc2oc1=O)C1CCCCC1,"20.6 µM [rising, partial curve, poor fit]",
CS(=O)(=O)N1CCN(c2ccccc2NC(=O)c2cccnc2)CC1,"3.26 µM [falling, partial curve, poor fit]",
COc1ccccc1NC(=O)Nc1nc(CC(=O)NCc2ccc(F)cc2)cs1,"32.6 µM [falling, single point]",
CNC(=O)c1cc(Nc2nnc(-c3ccc(O)cc3)c3ccccc23)ccc1OC,"25.1 µM [falling, single point]",
O=C(NNC(=S)NC1CCCCC1)c1ccc2c(c1)OCO2,"1.3 µM [falling, partial curve]",
Cc1ccc(NS(=O)(=O)c2cc(NC(=O)c3cc(=O)[nH]c(=O)[nH]3)ccc2Cl)c(C)c1,"6.31 µM [rising, single point]",
N#C/C(=C\c1ccncc1)c1ccc(NC(N)=O)cc1,"0.398 µM [rising, single point]",
Cc1ccc2nc(Cl)c(/C=N/n3c(C)nnc3C)cc2c1,"3.55 µM [rising, full curve, poor fit]",
COc1ccc(-c2nc(CN(CC3CCC(=O)N3)C(C)C)c(C)o2)c(C)c1C (configuration not stated),"35.5 µM [falling, single point]",

# Rewritten as tab-separated lines: 3 of the compounds above.
Compound	AC50 [1]	AC50 [2]
CN(C(=O)COC(=O)c1cc2ccccc2oc1=O)C1CCCCC1	20.6 µM [rising, partial curve, poor fit]	
CS(=O)(=O)N1CCN(c2ccccc2NC(=O)c2cccnc2)CC1	3.26 µM [falling, partial curve, poor fit]	
COc1ccccc1NC(=O)Nc1nc(CC(=O)NCc2ccc(F)cc2)cs1	32.6 µM [falling, single point]	

# Continuation.

Compound,AC50 [1],AC50 [2]
COC(=O)Nc1ccc(S(=O)(=O)N2CCCCC2C(=O)NCc2ccco2)cc1 (configuration not stated),"29.1 µM [rising, single point]",
C=C[C@@H]1c2c(F)cccc2N(S(=O)(=O)c2ccc(C)cc2)[C@H](c2ccc(OC(C)=O)cc2)C1(C#N)C#N,"23.1 µM [falling, single point]",
COc1ccc(OCC(=O)Nc2cc(OC)cc(OC)c2)cc1,"7.08 µM [falling, partial curve]",
COc1cccc(C(=O)Nc2ccc(S(=O)(=O)Nc3onc(C)c3C)cc2)c1,"5.62 µM [falling, partial curve, poor fit]",
N#Cc1c(SCC(=O)N2CCCCC2)nsc1SCC(=O)N1CCCCC1,"0.366 µM [rising, full curve, poor fit]",
O=C1C=C(NCC2CCCO2)C2(CCCCC2)O1 (configuration not stated),"1.26 µM [rising, partial curve, poor fit]",
C/C(=N\NC(=O)c1ccn(C)n1)c1ccc(NC(=O)C2CCC2)cc1,"17.8 µM [falling, single point]",
COc1cc(Br)cc(/C=C/c2ccc3cccc(O)c3n2)c1OC,"22.4 µM [rising, partial curve, poor fit]",
COC(=O)CS(=O)(=O)c1nnc([C@H](Cc2ccccc2)NC(=O)OC(C)(C)C)o1,"7.31 µM [falling, partial curve]",
Cc1cc2c(cc1S(=O)(=O)NCCc1ccc(Cl)cc1)OCC(=O)N2,"5.62 µM [rising, single point]",
CCOC(=O)C1=C(O)c2ccccc2C(=O)/C1=C\c1ccc(CC)cc1,"1.3 µM [falling, partial curve, poor fit]","18.4 µM [falling, partial curve, poor fit]"
Cc1ccc(CSc2nnc(-c3cccnc3)o2)cc1,"0.231 µM [rising, full curve, poor fit]",
CCOc1ccc(-c2csc(NC(=O)C3CCCO3)n2)cc1 (configuration not stated),"2.91 µM [rising, full curve]",
CCOC(=O)c1ccc(NC(=S)NNC(C)(C)C)cc1,"12.6 µM [falling, partial curve]","7.08 µM [falling, partial curve]"
CC(=O)c1ccc(-c2cccs2)s1,"12.6 µM [rising, single point]",
CC1=C(C)/C(=N/OC(=O)c2cccc([N+](=O)[O-])c2)C=CC1=O,"9.2 µM [falling, single point]",
COc1ccccc1NC(=O)c1cnc(SCC(=O)N2CCCc3ccccc32)n(C)c1=O,"0.282 µM [falling, full curve, poor fit]","0.562 µM [rising, full curve, poor fit]"
COC(=O)Cc1[nH]n(-c2nc3ccccc3s2)c(=O)c1C(C)=Nc1ccc(OC)cc1,"7.08 µM [falling, partial curve, poor fit]",
Cc1cccc2sc(NC(=O)CN(C)S(=O)(=O)c3ccc(Br)s3)nc12,"20.6 µM [falling, partial curve, poor fit]",
CC(C)(C)c1cc(NC(=O)Nc2ccc(Cl)cc2Cl)no1,"15.8 µM [rising, partial curve]",
O=S(=O)(c1ccc(Br)cc1)N1CCN(Cc2ccco2)CC1,"6.31 µM [rising, single point]",

Compound,AC50 [1],AC50 [2]
Cc1ccc(OCCNC(=O)c2ccco2)cc1C,"0.0058 µM [rising, full curve, poor fit]",
Cc1nc(-c2ccccn2)nc(SCC(=O)N2CCOCC2)c1Cl,"10 µM [rising, partial curve, poor fit]",
Cc1sc2nc(C(C)C)oc(=O)c2c1C,"2.59 µM [rising, full curve, poor fit]",
CN(C)c1ccc(/C=C2\SC(=O)N(CC(O)Cn3c4ccccc4c4ccccc43)C2=O)cc1 (configuration not stated),"32.6 µM [rising, partial curve, poor fit]",
COc1ccc(NC(=O)Cn2nnc(-c3ccccc3NS(=O)(=O)c3ccccc3)n2)cc1,"29.1 µM [falling, single point]",
CCOC(=O)Nc1ccc2c(c1)N(C(=O)CCN(C)C)c1ccccc1CC2,"15.8 µM [falling, single point]",
Cc1nn(-c2ccccn2)c2c1C(=O)C(Br)CC2 (configuration not stated),"35.5 µM [falling, single point]",
CCc1c(O)nc(SCC(=O)Nc2ccc(Br)cc2)n(-c2ccc(C)cc2)c1=O,"35.5 µM [falling, single point]",
COc1ccc2cc(C(N)=O)/c(=N\NC(=O)c3ccccc3)oc2c1,"0.501 µM [falling, full curve, poor fit]",
O=C(c1cccs1)N1CCN(c2ccc(F)cc2)CC1,"29.1 µM [rising, single point]",
c1ccc(-c2csc3ncnc(NCC4COc5ccccc5O4)c23)cc1 (configuration not stated),"29.1 µM [falling, single point]",
O=C(O)c1ccc(NNC(=S)Nc2cc(C(F)(F)F)ccc2Cl)cc1,"2 µM [falling, full curve, poor fit]",
CC(C)Nc1oc(-c2cccc3ccccc23)nc1C#N,"7.08 µM [rising, partial curve]",
Cc1c(C#N)c(NC(=O)CCl)n(Cc2ccccc2)c1C,"6.31 µM [falling, single point]",
Cc1ccc(Sc2ccc(NC(=O)CCl)cc2)cc1C,"29.1 µM [falling, single point]","18.4 µM [falling, partial curve, poor fit]"
CCCCn1nc2cc(C(=O)NCC3CC3)ccc2c1OCC,"2.82 µM [rising, full curve, poor fit]",
OCCOCCNc1ncnc2c1cnn2-c1ccccc1,"12.6 µM [falling, partial curve]",
O=C(CSc1nnc2n1CCCN2C(=S)Nc1ccc(Cl)cc1)c1ccccc1,"29.1 µM [falling, single point]",
CCOC(=O)CSc1nnc(CNc2ccc(Cl)cc2)n1-c1ccccc1,"8.91 µM [falling, partial curve, poor fit]",
O=C1C(NS(=O)(=O)c2ccccc2)=C(N2CCN(c3ccc(F)cc3)CC2)C(=O)c2ccccc21,"3.16 µM [rising, partial curve]",
